Binding data for one substance are collected here from article PMC5103071.

The chains behind the UniProt entries cited, without tags or fusion partners. Where a name states a change or a piece, a line headed by the entry shows the natural chain unless it says otherwise. A line that says so, or that is headed by a name, gives the form on record, which may keep a tag or linker.
myc–PIAS2α (O75928-2, form named): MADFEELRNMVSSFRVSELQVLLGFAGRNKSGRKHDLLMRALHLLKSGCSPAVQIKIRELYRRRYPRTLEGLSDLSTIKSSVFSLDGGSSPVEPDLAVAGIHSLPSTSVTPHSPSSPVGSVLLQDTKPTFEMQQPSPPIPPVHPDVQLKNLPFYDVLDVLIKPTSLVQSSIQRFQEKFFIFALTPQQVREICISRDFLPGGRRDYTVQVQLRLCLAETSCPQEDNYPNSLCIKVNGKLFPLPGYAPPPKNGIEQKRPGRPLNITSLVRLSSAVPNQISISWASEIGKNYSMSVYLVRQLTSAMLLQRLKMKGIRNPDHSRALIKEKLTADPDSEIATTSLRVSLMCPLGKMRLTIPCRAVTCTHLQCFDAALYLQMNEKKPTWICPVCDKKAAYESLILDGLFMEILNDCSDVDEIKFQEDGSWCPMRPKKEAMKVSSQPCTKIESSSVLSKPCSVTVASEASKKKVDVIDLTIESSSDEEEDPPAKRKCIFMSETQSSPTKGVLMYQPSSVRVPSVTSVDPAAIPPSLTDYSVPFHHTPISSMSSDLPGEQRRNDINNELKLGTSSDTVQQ

No constants are given. Whether binding was seen depends on the method and setting. In cells and extracts the contact can be indirect. Some results given as binding are weak or reduced against the parent protein; the word gives no strength. Where a sequence is shown, tags or fusion partners need not be part of it.

This assay addresses T1, FLAG–gephyrin (rat) (UniProt Q03555).
T1 sequence: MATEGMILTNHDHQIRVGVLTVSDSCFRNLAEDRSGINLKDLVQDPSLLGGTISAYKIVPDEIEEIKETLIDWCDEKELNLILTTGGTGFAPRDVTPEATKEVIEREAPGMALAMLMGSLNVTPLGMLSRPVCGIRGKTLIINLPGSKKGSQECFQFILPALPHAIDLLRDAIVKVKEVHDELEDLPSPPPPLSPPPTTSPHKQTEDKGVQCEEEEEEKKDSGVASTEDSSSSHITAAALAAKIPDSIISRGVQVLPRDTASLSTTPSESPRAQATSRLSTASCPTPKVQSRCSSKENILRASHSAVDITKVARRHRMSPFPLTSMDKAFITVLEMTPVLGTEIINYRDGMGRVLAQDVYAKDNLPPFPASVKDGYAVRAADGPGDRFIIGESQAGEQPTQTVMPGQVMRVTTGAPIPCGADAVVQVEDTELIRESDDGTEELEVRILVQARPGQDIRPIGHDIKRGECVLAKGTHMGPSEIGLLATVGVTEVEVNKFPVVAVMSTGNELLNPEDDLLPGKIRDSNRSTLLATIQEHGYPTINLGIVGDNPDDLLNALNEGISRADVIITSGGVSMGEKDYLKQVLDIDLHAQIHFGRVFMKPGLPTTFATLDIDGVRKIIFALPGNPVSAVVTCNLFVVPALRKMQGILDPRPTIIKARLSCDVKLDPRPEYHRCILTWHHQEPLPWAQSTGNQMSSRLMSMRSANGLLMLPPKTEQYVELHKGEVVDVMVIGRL
The assay is described as follows: co-IP; FLAG–gephyrin and myc–PIAS co-expressed in HEK293 cells; IP with anti-FLAG antibody, WB for myc; protein G agarose, washes in high-salt buffer and EBC buffer (50 mM Tris pH 8.0, 120 mM NaCl, 0.5% NP-40).

As to “myc–PIAS2α (from UniProt O75928-2 1-572)”, the binding entry is “binds”.
